# Some of these results come from one statement about several compounds together.
# Test system: Nippostrongylus brasiliensis
# Experiment: In vitro assay in Nippostrongylus brasiliensis (acetylcholine esterase readout)
# Type: cell-based
# Conditions: 10 μg/ml, adult Nippostrongylus brasiliensis
row,SMILES,activity (reduction of AChE compared to negative control) [%]
1,"O=C(NCC(F)(F)c1ncc(-n2cc(C(F)(F)F)cn2)cc1Cl)c1ccccc1C(F)(F)F [Example 3, N-[2-[3-chloro-5-[4-(trifluoromethyl)pyrazol-1-yl]-2-pyridyl]-2,2-difluoro-ethyl]-2-(trifluoromethyl)benzamide]",≥ 75
2,O=C(NCC(F)(F)c1ncc(-n2cc(Cl)cn2)cc1Cl)c1ccccc1C(F)(F)F [Example 12],≥ 75
3,O=C(NCC(F)(F)c1ncc(-n2ccc(C(F)(F)F)n2)cc1Cl)c1nccnc1C(F)(F)F [Example 8],≥ 75
4,Cn1c(C(F)(F)F)nn(-c2cnc(C(F)(F)CNC(=O)c3ccccc3C(F)(F)F)c(Cl)c2)c1=O [Example 6],≥ 75
5,O=C(NCC(F)(F)c1ncc(-c2ccoc2)cc1Cl)c1ccccc1C(F)(F)F [Example 1],≥ 75
6,O=C(NCC(F)(F)c1ncc(-n2ccc(C(F)(F)F)n2)cc1Cl)c1ccccc1C(F)(F)F [Example 11],≥ 75

# — patent US20170217931A1, “COMPOUNDS FOR USE IN ANTHELMINTHIC TREATMENT” (Bayer Animal Health GMBH, priority 2014, published 2017)
